The other results are listed elsewhere or left out.
Key:
Assay in all cases: log2 fold change, soluble protein after heating vs DMSO (PISA); higher = thermal stabilisation; K562 cells, 10 uM, 30 min; active = over 0.2 and 3.5 SD of the protein, either way, in both replicates (recomputed)
[1] = compound: CN1CCN(CCOc2cc(OC3CCOCC3)c3c(Nc4c(Cl)ccc5c4OCO5)ncnc3c2)CC1 [saracatinib]
Method in brief: (§1)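 K562 cells (2×10^6 cells/mL) were treated with 10 μM compound for 30 min, and aliquots were heated for 3 min over 48°C-58°C. Pooled aliquots were extracted in PBS with 0.5% NP-40 at 4°C, and the supernatant after 21,000xg for 90 min was measured by TMTpro 16plex LC-MS/MS with channel sums equalised. Reported thermal stability, relative to control samples and from duplicates, is a log2 fold change.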

Sequences of proteins named here, by UniProt entry; tags and fusion partners are left off. A change or cut given only in a name is not applied to a line headed by its entry.
UniProt Q99829: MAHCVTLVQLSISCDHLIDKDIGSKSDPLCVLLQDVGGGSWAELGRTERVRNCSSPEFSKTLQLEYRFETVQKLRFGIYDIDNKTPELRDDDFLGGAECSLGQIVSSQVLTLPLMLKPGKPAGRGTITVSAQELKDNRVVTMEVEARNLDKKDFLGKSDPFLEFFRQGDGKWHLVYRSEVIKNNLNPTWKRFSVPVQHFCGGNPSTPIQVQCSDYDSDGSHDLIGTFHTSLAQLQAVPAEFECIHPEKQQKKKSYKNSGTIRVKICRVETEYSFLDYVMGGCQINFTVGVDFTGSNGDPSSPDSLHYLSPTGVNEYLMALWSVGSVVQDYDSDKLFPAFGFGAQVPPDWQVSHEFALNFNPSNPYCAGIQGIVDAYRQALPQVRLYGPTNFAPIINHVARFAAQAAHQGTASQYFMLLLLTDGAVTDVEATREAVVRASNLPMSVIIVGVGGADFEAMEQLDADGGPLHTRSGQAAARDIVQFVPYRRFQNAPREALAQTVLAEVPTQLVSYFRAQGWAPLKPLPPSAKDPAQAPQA
UniProt A4D126: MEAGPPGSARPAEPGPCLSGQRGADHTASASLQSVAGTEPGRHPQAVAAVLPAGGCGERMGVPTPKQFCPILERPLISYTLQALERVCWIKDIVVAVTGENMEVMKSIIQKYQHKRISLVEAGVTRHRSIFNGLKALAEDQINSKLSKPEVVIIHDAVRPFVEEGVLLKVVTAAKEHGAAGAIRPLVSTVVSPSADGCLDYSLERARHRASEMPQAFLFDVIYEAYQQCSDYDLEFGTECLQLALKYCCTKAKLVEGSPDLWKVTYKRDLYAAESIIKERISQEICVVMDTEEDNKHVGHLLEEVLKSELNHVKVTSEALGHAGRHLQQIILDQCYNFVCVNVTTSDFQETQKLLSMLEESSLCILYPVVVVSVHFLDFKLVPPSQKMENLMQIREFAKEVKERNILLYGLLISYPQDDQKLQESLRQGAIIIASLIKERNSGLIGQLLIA
UniProt O75629: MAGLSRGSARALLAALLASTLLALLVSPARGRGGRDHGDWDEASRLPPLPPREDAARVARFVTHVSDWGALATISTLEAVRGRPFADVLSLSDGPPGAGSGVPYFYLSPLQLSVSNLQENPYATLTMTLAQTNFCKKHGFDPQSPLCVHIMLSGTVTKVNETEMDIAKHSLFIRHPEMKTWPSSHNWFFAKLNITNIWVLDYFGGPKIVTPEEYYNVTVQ
UniProt O14579: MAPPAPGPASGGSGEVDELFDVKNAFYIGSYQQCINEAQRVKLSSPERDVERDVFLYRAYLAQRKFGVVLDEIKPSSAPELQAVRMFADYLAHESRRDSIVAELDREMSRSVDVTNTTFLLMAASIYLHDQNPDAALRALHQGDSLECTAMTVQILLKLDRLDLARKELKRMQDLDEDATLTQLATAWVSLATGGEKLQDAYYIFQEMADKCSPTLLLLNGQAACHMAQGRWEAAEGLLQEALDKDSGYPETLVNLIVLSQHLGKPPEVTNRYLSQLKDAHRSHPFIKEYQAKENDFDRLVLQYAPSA
UniProt Q7L5N1: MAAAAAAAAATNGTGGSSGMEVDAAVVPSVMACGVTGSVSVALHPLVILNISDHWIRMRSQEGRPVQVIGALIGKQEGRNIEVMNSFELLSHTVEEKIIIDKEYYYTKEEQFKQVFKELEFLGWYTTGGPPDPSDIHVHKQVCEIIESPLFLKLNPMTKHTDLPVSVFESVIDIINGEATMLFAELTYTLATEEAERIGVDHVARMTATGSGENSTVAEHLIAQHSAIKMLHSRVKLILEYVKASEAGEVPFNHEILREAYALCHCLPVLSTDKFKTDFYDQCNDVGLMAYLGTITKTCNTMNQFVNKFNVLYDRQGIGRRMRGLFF
UniProt P31327: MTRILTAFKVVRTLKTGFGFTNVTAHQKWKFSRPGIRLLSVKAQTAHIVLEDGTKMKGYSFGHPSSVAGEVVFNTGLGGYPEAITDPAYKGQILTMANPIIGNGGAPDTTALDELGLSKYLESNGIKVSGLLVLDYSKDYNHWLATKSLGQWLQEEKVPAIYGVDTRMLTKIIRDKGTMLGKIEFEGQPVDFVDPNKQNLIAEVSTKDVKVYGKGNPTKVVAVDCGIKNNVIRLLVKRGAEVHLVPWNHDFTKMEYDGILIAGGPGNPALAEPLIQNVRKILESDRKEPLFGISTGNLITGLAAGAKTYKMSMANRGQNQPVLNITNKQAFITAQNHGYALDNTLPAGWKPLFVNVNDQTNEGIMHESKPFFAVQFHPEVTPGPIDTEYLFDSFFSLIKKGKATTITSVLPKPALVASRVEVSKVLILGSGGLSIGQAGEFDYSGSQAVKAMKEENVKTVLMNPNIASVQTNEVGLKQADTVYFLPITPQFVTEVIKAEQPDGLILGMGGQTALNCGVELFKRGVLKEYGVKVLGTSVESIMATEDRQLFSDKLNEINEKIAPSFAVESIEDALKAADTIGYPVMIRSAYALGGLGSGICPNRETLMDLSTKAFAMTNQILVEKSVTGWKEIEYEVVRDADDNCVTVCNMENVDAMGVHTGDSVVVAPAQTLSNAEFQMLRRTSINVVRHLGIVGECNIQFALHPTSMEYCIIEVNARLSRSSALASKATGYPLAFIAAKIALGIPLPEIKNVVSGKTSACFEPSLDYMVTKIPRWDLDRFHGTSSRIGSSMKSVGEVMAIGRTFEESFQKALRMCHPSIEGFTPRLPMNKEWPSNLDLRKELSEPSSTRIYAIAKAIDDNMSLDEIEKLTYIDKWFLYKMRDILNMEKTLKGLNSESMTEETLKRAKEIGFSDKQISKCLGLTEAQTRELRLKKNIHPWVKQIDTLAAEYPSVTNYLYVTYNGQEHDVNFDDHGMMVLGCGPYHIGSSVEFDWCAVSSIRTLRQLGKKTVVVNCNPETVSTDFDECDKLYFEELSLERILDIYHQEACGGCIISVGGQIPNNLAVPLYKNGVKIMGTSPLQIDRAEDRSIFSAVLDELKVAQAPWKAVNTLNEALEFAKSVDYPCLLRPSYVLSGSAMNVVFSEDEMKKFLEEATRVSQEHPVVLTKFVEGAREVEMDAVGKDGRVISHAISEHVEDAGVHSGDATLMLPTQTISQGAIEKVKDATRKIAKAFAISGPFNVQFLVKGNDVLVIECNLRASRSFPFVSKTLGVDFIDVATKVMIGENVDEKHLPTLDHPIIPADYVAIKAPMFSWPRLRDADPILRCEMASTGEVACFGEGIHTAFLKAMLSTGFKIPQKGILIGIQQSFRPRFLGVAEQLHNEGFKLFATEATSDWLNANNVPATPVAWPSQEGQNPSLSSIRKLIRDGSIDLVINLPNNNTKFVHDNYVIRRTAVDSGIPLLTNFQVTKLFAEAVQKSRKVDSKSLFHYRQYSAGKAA
UniProt Q9UBF2: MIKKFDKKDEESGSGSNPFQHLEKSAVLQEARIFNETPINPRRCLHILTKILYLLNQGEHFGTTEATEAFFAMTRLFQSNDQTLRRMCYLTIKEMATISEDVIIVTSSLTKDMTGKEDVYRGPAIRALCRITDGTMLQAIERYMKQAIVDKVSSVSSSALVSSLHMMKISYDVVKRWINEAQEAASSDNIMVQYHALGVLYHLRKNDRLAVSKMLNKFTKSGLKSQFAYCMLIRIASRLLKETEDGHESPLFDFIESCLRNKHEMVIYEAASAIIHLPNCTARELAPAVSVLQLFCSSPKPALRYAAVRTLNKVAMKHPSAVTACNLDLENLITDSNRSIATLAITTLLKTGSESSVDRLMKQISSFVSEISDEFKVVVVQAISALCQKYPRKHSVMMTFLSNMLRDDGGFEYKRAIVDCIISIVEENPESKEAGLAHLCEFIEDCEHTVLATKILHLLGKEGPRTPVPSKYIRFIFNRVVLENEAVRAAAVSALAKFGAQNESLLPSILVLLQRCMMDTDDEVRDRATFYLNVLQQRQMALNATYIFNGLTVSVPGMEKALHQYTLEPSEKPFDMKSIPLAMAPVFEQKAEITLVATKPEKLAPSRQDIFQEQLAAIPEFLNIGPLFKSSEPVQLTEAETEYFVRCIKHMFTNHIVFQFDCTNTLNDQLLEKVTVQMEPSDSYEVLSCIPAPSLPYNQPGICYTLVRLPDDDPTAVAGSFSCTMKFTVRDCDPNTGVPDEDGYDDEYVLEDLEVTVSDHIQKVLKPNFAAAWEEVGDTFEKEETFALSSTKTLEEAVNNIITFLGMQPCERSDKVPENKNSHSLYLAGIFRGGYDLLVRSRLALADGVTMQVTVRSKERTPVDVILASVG
UniProt Q08257: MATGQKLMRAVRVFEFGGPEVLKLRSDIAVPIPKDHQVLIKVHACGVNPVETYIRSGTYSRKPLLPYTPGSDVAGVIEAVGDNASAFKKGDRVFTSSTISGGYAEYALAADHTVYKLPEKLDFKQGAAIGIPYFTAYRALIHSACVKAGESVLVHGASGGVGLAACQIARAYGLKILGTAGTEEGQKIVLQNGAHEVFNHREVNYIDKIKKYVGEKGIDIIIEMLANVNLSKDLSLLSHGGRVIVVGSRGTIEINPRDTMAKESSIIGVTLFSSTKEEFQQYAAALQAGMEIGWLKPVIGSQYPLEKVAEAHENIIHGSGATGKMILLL
UniProt P53621: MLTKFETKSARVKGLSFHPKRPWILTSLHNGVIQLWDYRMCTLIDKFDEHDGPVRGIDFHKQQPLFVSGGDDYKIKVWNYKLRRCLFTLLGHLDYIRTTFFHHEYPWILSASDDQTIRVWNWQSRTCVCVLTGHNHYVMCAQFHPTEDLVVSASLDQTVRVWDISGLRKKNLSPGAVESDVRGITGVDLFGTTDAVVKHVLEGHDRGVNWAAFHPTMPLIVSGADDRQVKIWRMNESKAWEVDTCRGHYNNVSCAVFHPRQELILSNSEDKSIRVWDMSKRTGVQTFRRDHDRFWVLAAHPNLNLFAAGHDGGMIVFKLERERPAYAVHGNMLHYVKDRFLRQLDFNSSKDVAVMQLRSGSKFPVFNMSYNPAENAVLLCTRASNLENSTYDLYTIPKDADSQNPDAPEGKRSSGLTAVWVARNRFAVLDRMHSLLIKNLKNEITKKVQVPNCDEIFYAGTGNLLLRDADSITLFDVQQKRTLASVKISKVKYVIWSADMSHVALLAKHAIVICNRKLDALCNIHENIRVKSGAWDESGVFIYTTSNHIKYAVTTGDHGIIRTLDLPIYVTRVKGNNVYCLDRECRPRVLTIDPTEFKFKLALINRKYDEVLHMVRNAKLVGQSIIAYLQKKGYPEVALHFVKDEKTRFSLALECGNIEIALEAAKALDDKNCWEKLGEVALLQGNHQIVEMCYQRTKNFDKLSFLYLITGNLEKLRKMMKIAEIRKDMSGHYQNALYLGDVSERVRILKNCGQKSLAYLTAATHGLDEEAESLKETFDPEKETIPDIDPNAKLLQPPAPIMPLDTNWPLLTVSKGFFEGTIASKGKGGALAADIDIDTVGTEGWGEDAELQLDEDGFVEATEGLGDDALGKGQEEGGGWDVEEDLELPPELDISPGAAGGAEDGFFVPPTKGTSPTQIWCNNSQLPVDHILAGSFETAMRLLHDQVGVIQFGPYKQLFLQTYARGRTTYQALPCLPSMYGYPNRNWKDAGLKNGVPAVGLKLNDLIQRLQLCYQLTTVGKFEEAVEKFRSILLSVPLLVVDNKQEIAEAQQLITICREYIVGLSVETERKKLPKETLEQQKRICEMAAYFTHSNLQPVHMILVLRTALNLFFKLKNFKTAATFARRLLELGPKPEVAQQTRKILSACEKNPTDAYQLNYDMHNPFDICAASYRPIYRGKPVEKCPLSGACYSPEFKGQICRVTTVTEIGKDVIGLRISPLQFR
UniProt P31146: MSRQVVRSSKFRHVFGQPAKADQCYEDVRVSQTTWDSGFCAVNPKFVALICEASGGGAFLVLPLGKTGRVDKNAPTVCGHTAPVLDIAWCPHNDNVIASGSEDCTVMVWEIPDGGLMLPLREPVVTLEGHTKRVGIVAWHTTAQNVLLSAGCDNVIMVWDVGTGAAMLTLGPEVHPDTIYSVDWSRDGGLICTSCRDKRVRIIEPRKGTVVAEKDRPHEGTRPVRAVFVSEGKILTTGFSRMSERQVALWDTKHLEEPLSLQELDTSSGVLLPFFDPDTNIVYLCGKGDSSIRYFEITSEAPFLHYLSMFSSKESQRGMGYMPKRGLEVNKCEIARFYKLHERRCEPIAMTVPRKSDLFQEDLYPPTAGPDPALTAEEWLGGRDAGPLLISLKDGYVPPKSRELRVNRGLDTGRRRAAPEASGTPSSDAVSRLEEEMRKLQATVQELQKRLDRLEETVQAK
UniProt Q9UBW8: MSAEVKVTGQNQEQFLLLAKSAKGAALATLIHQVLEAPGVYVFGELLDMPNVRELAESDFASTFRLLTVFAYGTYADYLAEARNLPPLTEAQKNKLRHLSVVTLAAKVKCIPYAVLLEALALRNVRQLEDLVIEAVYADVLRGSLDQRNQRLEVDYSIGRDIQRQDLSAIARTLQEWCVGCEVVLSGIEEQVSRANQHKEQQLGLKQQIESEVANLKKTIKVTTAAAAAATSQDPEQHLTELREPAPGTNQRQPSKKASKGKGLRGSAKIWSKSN

[2] = compound: CN1CCN(c2nc(C3=C(c4c[nH]c5ccccc45)C(=O)NC3=O)c3ccccc3n2)CC1 [sotrastaurin]
Method in brief: as §1

[3] = compound: CN1CC[C@H](c2c(O)cc(O)c3c(=O)cc(-c4ccccc4Cl)oc23)[C@H](O)C1 [alvocidib]
Method in brief: as §1

[4] = compound: CN1CCc2c(c3ccccc3n2Cc2ccc(C(=O)NO)cc2)C1 [Tubastatin A]
Method in brief: as §1

[5] = compound: CNC(=O)C1=CC=CC=C1NC2=NC(=NC=C2Cl)NC3=C(C=C(C=C3)N4CCOCC4)OC
Method in brief: as §1

[6] = compound: CNC(=O)c1ccc(Nc2ncc(C(F)(F)F)c(NCc3nccnc3N(C)S(C)(=O)=O)n2)cc1 [defactinib]
Method in brief: as §1

[7] = compound: CNCc1ccc(-c2[nH]c3cc(F)cc4c3c2CCNC4=O)cc1 [rucaparib]
Method in brief: as §1

[8] = compound: CNc1nc(-c2ccc3c(N)n[nH]c3c2)cc(N2C[C@@H](C(=O)NC3CCCCC3)CC[C@H]2C)n1
Method in brief: as §1

[9] = compound: COC(=O)N[C@@H](C)CNc1nccc(-c2cn(C(C)C)nc2-c2cc(Cl)cc(NS(C)(=O)=O)c2F)n1 [encorafenib]
Method in brief: as §1

[10] = compound: COC(=O)[C@H](CCSC)NC(=O)C1=C(C=C(C=C1)NC[C@H](CS)N)C2=CC=CC=C2
Method in brief: as §1

[11] = compound: COC1=CC=C(C=C1)CN2C=CC3=C2C=C(C=C3)C(=O)NO
Method in brief: as §1

[12] = compound: CON(C)C(=O)N1N=C(c2cc(F)ccc2F)S[C@@]1(CCCN)c1ccccc1 [filanesib]
Method in brief: as §1

[13] = compound: CO[C@H]1C[C@@H]2CC[C@@H](C)[C@@](O)(O2)C(=O)C(=O)N2CCCC[C@H]2C(=O)O[C@H]([C@H](C)C[C@@H]2CC[C@H](n3cnnn3)[C@H](OC)C2)CC(=O)[C@H](C)/C=C(\C)[C@@H](O)[C@@H](OC)C(=O)[C@H](C)C[C@H](C)/C=C/C=C/C=C/1C [zotarolimus]
Method in brief: as §1

[14] = compound: COc1cc(C(=O)O)ccc1NC(=O)[C@@H]1N[C@@H](CC(C)(C)C)[C@](C#N)(c2ccc(Cl)cc2F)[C@H]1c1cccc(Cl)c1F [idasanutlin]
Method in brief: as §1

[15] = compound: COc1cc(Nc2ncc3c(n2)-c2ccc(Cl)cc2C(c2c(F)cccc2OC)=NC3)ccc1C(=O)O [alisertib]
Method in brief: as §1

[16] = compound: COc1cc2nc(-c3cc(F)ccc3O)nc(N[C@@H]3CNC[C@H]3C(C)(C)O)c2cc1OC
Method in brief: as §1

[17] = compound: COc1cc2ncnc(Nc3ccc(F)c(Cl)c3)c2cc1OCCCN1CCOCC1 [gefitinib]
Method in brief: as §1

[18] = compound: COc1cccc2cc(-c3nc([C@H]4CC[C@H](C(=O)O)CC4)n4ncnc(N)c34)[nH]c12
Method in brief: as §1

[19] = compound: CS(=O)(=O)CCNCc1ccc(-c2ccc3ncnc(Nc4ccc(OCc5cccc(F)c5)c(Cl)c4)c3c2)o1 [lapatinib]
Method in brief: as §1

[20] = compound: CS(=O)(=O)N1CCN(Cc2cc3nc(-c4cccc5[nH]ncc45)nc(N4CCOCC4)c3s2)CC1 [pictilisib]
Method in brief: as §1

Measured: log2 fold change

CPNE1 (UniProt Q99829)
inactive: [1] 0.08 | [2] 0.006 | [3] 0.001 | [4] -0.025 | [5] -0.01 | [6] -0.017 | [7] -0.003 | [8] -0.028 | [9] 0.017 | [10] 0.05 | [11] -0.011 | [12] -0.021 | [13] 0.022 | [14] -0.013 | [15] 0.036 | [16] 0.05 | [17] 0.007 | [18] 0.031 | [19] -0.003 | [20] -0.038

CREB1 (UniProt P16220)
inactive: [1] 0 | [2] 0.026 | [3] 0.04 | [4] -0.066 | [5] 0.026 | [6] -0.003 | [7] -0.055 | [8] 0.008 | [9] 0.017 | [10] 0.025 | [11] -0.053 | [12] -0.004 | [13] -0.048 | [14] -0.006 | [15] -0.032 | [16] 0.001 | [17] 0.001 | [18] 0.031 | [19] -0.015 | [20] 0.063

CRPPA (UniProt A4D126)
inactive: [1] 0.004 | [2] 0.023 | [3] -0.051 | [4] 0.013 | [5] -0.02 | [6] -0.03 | [7] -0.01 | [8] -0.02 | [9] -0.045 | [10] -0.004 | [11] -0.074 | [12] -0.009 | [13] 0.03 | [14] -0.065 | [15] -0.077 | [16] 0.012 | [17] 0.01 | [18] 0.006 | [19] 0.005 | [20] 0.041

CREG1 (UniProt O75629)
inactive: [1] 0.031 | [2] 0.081 | [3] 0.001 | [4] 0.02 | [5] 0.045 | [6] 0.003 | [7] -0.01 | [8] -0.016 | [9] -0.029 | [10] -0.033 | [11] 0.009 | [12] 0.159 | [13] -0.01 | [14] -0.043 | [15] 0.02 | [16] 0.015 | [17] -0.029 | [18] 0.039 | [19] -0.053 | [20] 0.052

COQ8A (UniProt Q8NI60)
inactive: [1] 0.07 | [2] -0.008 | [3] -0.056 | [4] -0.008 | [5] 0.075 | [6] -0.068 | [7] -0.08 | [8] 0.061 | [9] 0.063 | [10] -0.061 | [11] -0.003 | [12] -0.015 | [13] 0.011 | [14] -0.099 | [15] -0.037 | [16] -0.06 | [17] 0.065 | [18] 0.072 | [19] 0.059 | [20] 0.009

Taken from above (2 entries):
CREG1 (UniProt O75629)
inactive: [1] 0.031 | [2] 0.081 | [3] 0.001 | [4] 0.02 | [5] 0.045 | [6] 0.003 | [7] -0.01 | [8] -0.016 | [9] -0.029 | [10] -0.033 | [11] 0.009 | [12] 0.159 | [13] -0.01 | [14] -0.043 | [15] 0.02 | [16] 0.015 | [17] -0.029 | [18] 0.039 | [19] -0.053 | [20] 0.052

COQ8A (UniProt Q8NI60)
inactive: [1] 0.07 | [2] -0.008 | [3] -0.056 | [4] -0.008 | [5] 0.075 | [6] -0.068 | [7] -0.08 | [8] 0.061 | [9] 0.063 | [10] -0.061 | [11] -0.003 | [12] -0.015 | [13] 0.011 | [14] -0.099 | [15] -0.037 | [16] -0.06 | [17] 0.065 | [18] 0.072 | [19] 0.059 | [20] 0.009

Remaining list, next part:

COPE (UniProt O14579)
inactive: [1] -0.03 | [2] -0.014 | [3] 0.008 | [4] 0.02 | [5] -0.026 | [6] -0.054 | [7] -0.08 | [8] -0.005 | [9] 0.04 | [10] 0.049 | [11] -0.05 | [12] 0.067 | [13] 0.018 | [14] -0.048 | [15] -0.044 | [16] 0.05 | [17] 0.004 | [18] 0.003 | [19] -0.036 | [20] 0.117

COPS6 (UniProt Q7L5N1)
inactive: [1] 0.071 | [2] -0.052 | [3] -0.053 | [4] -0.04 | [5] 0.001 | [6] -0.045 | [7] -0.014 | [8] -0.001 | [9] 0.02 | [10] 0.004 | [11] 0.057 | [12] -0.122 | [13] 0.024 | [14] -0.039 | [15] -0.022 | [16] -0.03 | [17] -0.003 | [18] 0.016 | [19] -0.094 | [20] -0.011

COX6A1 (UniProt P12074)
inactive: [1] -0.279 | [2] 0.008 | [3] -0.059 | [4] -0.008 | [5] 0.059 | [6] -0.169 | [7] -0.203 | [8] 0.007 | [9] 0.074 | [10] 0.117 | [11] 0.133 | [12] 0.175 | [13] 0.158 | [14] 0.085 | [15] 0.021 | [16] -0.068 | [17] 0.111 | [18] 0.117 | [19] -0.014

CPS1 isoform 3 (UniProt P31327)
inactive: [1] -0.105 | [2] 0.071 | [3] -0.02 | [4] -0.101 | [5] 0.055 | [6] 0.083 | [7] -0.268 | [8] 0.097 | [9] -0.021 | [10] -0.011 | [11] 0.041 | [12] -0.055 | [13] 0.022 | [14] -0.125 | [15] -0.005 | [16] 0.06 | [17] 0.064 | [18] 0.149 | [19] -0.204 | [20] 0.133

COPG2 (UniProt Q9UBF2)
inactive: [1] 0.001 | [2] -0.031 | [3] -0.048 | [4] 0.027 | [5] 0.018 | [6] -0.09 | [7] -0.036 | [8] 0.026 | [9] 0.023 | [10] -0.037 | [11] 0.005 | [12] -0.009 | [13] 0.046 | [14] -0.076 | [15] -0.032 | [16] 0.132 | [17] 0.033 | [18] -0.014 | [19] -0.009 | [20] 0.01

CRYZ (UniProt Q08257)
inactive: [1] 0.021 | [2] 0.03 | [3] -0.009 | [4] 0.009 | [5] -0.012 | [6] -0.019 | [7] -0.008 | [8] -0.011 | [9] -0.012 | [10] -0.007 | [11] -0.006 | [12] -0.042 | [13] -0.003 | [14] -0.064 | [15] 0.013 | [16] 0.035 | [17] -0.005 | [18] 0.06 | [19] -0.069 | [20] 0.048

COPA isoform 2 (UniProt P53621)
inactive: [1] 0 | [2] -0.007 | [3] -0.032 | [4] -0.016 | [5] 0.025 | [6] -0.026 | [7] 0.022 | [8] 0.002 | [9] 0.038 | [10] -0.004 | [11] 0.004 | [12] 0.017 | [13] 0.036 | [14] -0.038 | [15] -0.084 | [16] 0.092 | [17] 0.036 | [18] -0.011 | [19] 0.018 | [20] 0.015

CORO1A (UniProt P31146)
inactive: [1] -0.091 | [2] -0.006 | [3] -0.032 | [4] 0.049 | [5] 0.086 | [6] -0.016 | [7] -0.014 | [8] 0.04 | [9] 0.02 | [10] 0.006 | [11] 0.03 | [12] -0.037 | [13] -0.05 | [14] -0.039 | [15] -0.034 | [16] 0.035 | [17] 0.028 | [18] -0.01 | [19] 0.037 | [20] 0.055

COQ6 (UniProt Q9Y2Z9)
inactive: [1] -0.003 | [2] 0.076 | [3] -0.047 | [4] 0 | [5] 0.02 | [6] -0.003 | [7] 0.012 | [8] 0.044 | [9] 0.005 | [10] -0.017 | [11] 0.082 | [12] -0.055 | [13] -0.009 | [14] 0.009 | [15] -0.067 | [16] -0.022 | [17] 0.024 | [18] 0.01 | [19] 0.139 | [20] -0.014

COPS7A (UniProt Q9UBW8)
inactive: [1] 0.026 | [2] 0.007 | [3] 0.009 | [4] 0.003 | [5] -0.019 | [6] -0.033 | [7] -0.042 | [8] -0.047 | [9] -0.007 | [10] 0.031 | [11] 0.037 | [12] -0.049 | [13] -0.026 | [14] -0.005 | [15] 0.008 | [16] 0.021 | [17] 0.007 | [18] 0.012 | [19] 0.016 | [20] 0.07

COLGALT2 (UniProt Q8IYK4)
inactive: [1] -0.125 | [2] -0.048 | [3] 0.059 | [4] 0.043 | [5] -0.015 | [6] 0.094 | [7] 0.02 | [8] 0.007 | [9] 0.095 | [10] -0.018 | [11] -0.062 | [12] 0.128 | [13] 0.055 | [14] 0.054 | [15] -0.115 | [16] -0.003 | [17] -0.015 | [18] -0.128 | [19] 0.087 | [20] -0.01

From the supplement of paper PMC10849652
